At least one compound was matched to its structure with a doubt left. Some results were stated once for a whole list of compounds, not compound by compound.
Assays:
[1] = system: Sprague-Dawley laboratory rats; test: Locomotor activity (ambulations) by infrared photobeams (clozapine studies); assay type: in vivo, Sprague-Dawley Rattus Norvegicus
From the text: Locomotor activity (ambulation) was monitored with infrared photobeams at the same time as DA and 5-HT release in NAcc was detected with BRODERICK PROBES® in conjunction with In Vivo Microvoltammetry. The chamber was faradaic, covered with copper to refract possible electrical artifacts (dimensions: 24 in (width) by 18 in (depth) by 23.5 in (height)). A 16 by 16 array of these infrared photobeams, were held in place by an aluminum frame which was situated ¾ in above the Plexiglas floor of the chamber to detect locomotor activity. Photobeams were sampled by a Pentium computer to define the x-y position of the animal within a 1.5 in resolution every 100 msec. When an x-y position was calculated, it was used to define the frequency of locomotor activity in counts. The locomotor activity system is a modified version of an Activity Pattern Monitor (APM) (San Diego Instruments, San Diego, Calif.). Behavioral data is presented in absolute frequency, i.e., number of counts recorded.
The first hr pre-drug allowed exploratory behavior. Exploratory behavior is defined as open-field behavior of ambulations (forward locomotion) wherein animals respond to the stimuli of a novel environment with high frequency of behavioral counts. The second hr pre-drug allowed the animal to become habituated before treatment.
In the Acute studies, each drug was administered at the end of the habituation period. Baseline (control) values were taken every five min for the last thirty min of the habituation period at which time drug injection(s) took place. Electrochemical recordings for DA and 5-HT release in NAcc, were continued for two hrs; at the same time, locomotor behavior continued to be monitored and recorded with infrared photobeams. […]
In the Subacute studies, which took place twenty-four hrs later, the animals were again placed in the faradaic behavioral chamber and no further drug was administered. Recordings of separate electrochemical signals for DA and 5-HT release in NAcc, were taken for one hr; at the same time, locomotor behavior was monitored and recorded with infrared photobeams. […]

DA release in NAcc [2] = test: In vivo microvoltammetry, DA release in NAcc (clozapine studies); set-up: species or system Sprague-Dawley Rattus Norvegicus
Protocol: (§1) There is an increasing awareness that a psychosis, similar to that of schizophrenic psychosis, can be derived from cocaine addiction. […] Release mechanisms for monoamines, were determined by using a depolarization blocker, gamma-butyrolactone (γBL). […] Acute and Subacute studies were performed for each treatment group.
(§2) The stereotaxic equipment was purchased from David Kopf Instruments, Tujunga, Calif. A Ag/AgCl reference electrode was placed in contact with dura, 7 mm anteriorally and contralaterally to the indicator microelectrode. A stainless steel auxiliary microelectrode was placed in contact with dura. BRODERICK PROBE® microelectrodes were manufactured on site.
(§3) In vivo microvoltammetric studies on conscious Sprague-Dawley laboratory rats were begun nine to fifteen days after the aseptic surgical operations were performed. On each experimental day, the animal was placed in a Plexiglas-copper faradaic chamber. The three-microelectrode assembly, enclosed within the animal's prosthetic acrylic cap, was connected to a CV37 detector by means of a mercury commutator (Br. Res. Instr., Princeton, N.J.), a flexible cable, and a mating connector (BJM Electronics, Staten Island, N.Y.). The CV37 detector was electrically connected to a Minigard surge suppresser (Jefferson Electric, Magnetek, N.Y.) which was then connected to an electrical ground in isolation. […] Each animal was used as its own control. Changes in synaptic concentrations of DA and 5-HT are presented as percent change (% of control) in order to minimize normal between-animal variations. […] In vivo microvoltammetric scans were recorded in sec and repeated every five min for a period of 2 hrs before each treatment and a period of two hrs after each treatment.
(§4) Potentials were applied with a CV37 detector (BAS, West Lafayette, Ind.). Potentials were applied from −0.2V to +0.4V with respect to a Ag/AgCl (1M NaCl) electrode, at a scan rate of 10 mV/sec at time constants of 5 and 1 tau. One scan was completed in 60 sec. Non-faradaic charging current was eliminated in the first 25 sec.
(§5) Calibration curves were determined experimentally, in vitro, in a freshly prepared deoxygenated physiological saline-phosphate buffer solution (0.01 M, pH=7.4). We use ultra pure Nitrogen (N2) (T. W. Smith Corp., Bklyn, N.Y.) to deoxygenate the buffer solution. […] Calibration studies were also performed in freshly prepared deoxygenated buffer solutions containing phosphotidylethanolamine (PEA), combined with bovine serum albumin (BSA) (Sigma Aldrich, St. Louis, Mo.), a solution which closely mimics brain constituents. […] Detection limits for basal synaptic concentrations of DA and 5-HT in NAcc were 12 nM and 2 nM respectively.

[3] = pretreatment with clozapine; cited from earlier work
5-HT release in NAcc [4] = test: In vivo microvoltammetry, 5-HT release in NAcc (clozapine studies); set-up: species or system Sprague-Dawley Rattus Norvegicus
Protocol: as §1, §2, §3, §4, §5

[5] = system: Sprague-Dawley laboratory rats; test: Locomotion (ambulations) by infrared photobeams (risperidone studies); assay type: in vivo, Sprague-Dawley Rattus Norvegicus
Protocol: (§6) Behaviors were monitored with infrared photobeams which surrounded the faradaic chamber. Open-field behaviors of locomotion (ambulations) and stereotypy (fine movements of sniffing and grooming) were recorded in sec and repeated every five min for a period of 2 hrs before each treatment and a period of 2 hrs after each treatment. Open-field behaviors were monitored simultaneously with in vivo microvoltammetric recordings of monoamines.
(§7) The first hr pre-drug, allowed exploratory behavior. Exploratory behavior is defined as open-field behavior of ambulations (forward locomotion) and stereotypy (fine movements of sniffing and grooming), wherein animals respond to the stimuli of a novel environment with a high frequency of behavioral counts. The second hr pre-drug allowed the animal to become habituated before treatment. […] Each animal was monitored for possible recovery, withdrawal or after-effects. of each treatment WHILE open-field behaviors of locomotions and stereotypy were monitored with computerized infrared photocell beams which surround the faradaic chamber.
(§8) The faradaic chamber was made of plexiglas and covered with copper wire to refract possible electrical artifacts (dimensions: 24 inch (width) by 18 inch (depth) by 23.5 inch (height)). […] When an x-y position was calculated, it was used to define a particular behavioral parameter. […]

[6] = after bolus injections (e.g., 14.7 umol/kg); cited from earlier work
[7] = system: Sprague-Dawley laboratory rats; test: Stereotypy (fine movements of sniffing and grooming) by infrared photobeams (risperidone studies); assay type: in vivo, Sprague-Dawley Rattus Norvegicus
Protocol: as §6, §7, §8

DA release in NAcc [8] = test: In vivo microvoltammetry, DA release in NAcc (risperidone studies); set-up: species or system Sprague-Dawley Rattus Norvegicus
Protocol: (§9) In vivo microvoltammetry was used to detect dopamine (DA) and serotonin (5-HT) release from Nucleus Accumbens (NAcc) of freely moving, male, Sprague Dawley laboratory rats, while animals' locomotor (forward ambulations) and stereotypic behavior (fine movements of sniffing and grooming) were monitored at the same time with infrared photobeams. Monoamine release mechanisms were determined by using a depolarization blocker, gamma-butyrolactone (γBL). Miniature carbon sensors, BRODERICK PROBE® Lauric Acid Microelectrodes, smaller than a human hair, were used in conjunction with a semidifferential electrochemical circuit, to detect release of each monoamine in separate signals and within seconds. […]
(§10) In vivo microvoltammetric studies on conscious Sprague-Dawley laboratory rats were begun nine to fifteen days after the aseptic surgical operations were performed. […] In vivo microvoltammetric scans were recorded in sec and repeated every five min for a period of 2 hrs before each treatment and a period of two hrs after each treatment.
(§11) The first hr pre-drug, allowed exploratory behavior. […] Each animal was monitored for possible recovery, withdrawal or after-effects. of each treatment WHILE open-field behaviors of locomotions and stereotypy were monitored with computerized infrared photocell beams which surround the faradaic chamber.

5-HT release in NAcc [9] = test: In vivo microvoltammetry, 5-HT release in NAcc (risperidone studies); set-up: species or system Sprague-Dawley Rattus Norvegicus
Protocol: as §9, §10, §11

[10] = clozapine 20 mg/kg i.p. + cocaine 10 mg/kg i.p., N=6, 2 hr, versus cocaine group
[11] = Subacute, 24 hr after clozapine 20 mg/kg i.p. + cocaine 10 mg/kg i.p.
[12] = 24 hr after single dose, no further drug
[13] = risperidone 2 mg/kg s.c., cocaine 10 mg/kg i.p. or both, 2 hr
[14] = cocaine 10 mg/kg i.p., N=5, 2 hr post drug

Compound: CN1CCN(C2=Nc3cc(Cl)ccc3Nc3ccccc32)CC1 [Clozapine, clozapine]
- Effect on cocaine-induced locomotor activity, Day 1 Acute [1, 10]: significantly blocked
- Effect on DA cocaine-related withdrawal responses (DA release in NAcc [2]; [11]): unable to reverse
- Effect on cocaine-induced DA release, Day 1 Acute (DA release in NAcc [2]; [10]): significantly blocked
- Active substance (cocaine) abusers in whom cocaine abuse was alleviated [3]: more than 85%
- Effect on 5-HT cocaine-related withdrawal effects (5-HT release in NAcc [4]; [11]): reversed
- Effect on cocaine-induced 5-HT release, Day 1 Acute (5-HT release in NAcc [4]; [10]): significantly blocked

Compound: COC(=O)[C@H]1[C@@H](OC(=O)c2ccccc2)C[C@@H]2CC[C@H]1N2C [Cocaine, cocaine]
- Locomotion Day 2 versus Day 1 baseline, Subacute [5, 12]: no statistically significant differences
- Locomotor activity (ambulations) versus baseline (habituation), Day 1 Acute [5, 13]: significantly increased
- Locomotor activity Day 2 versus Day 1 baseline, Subacute ([1]; 24 hr after single injection, no further drug, 1 hr): significantly increased
- Locomotor activity (ambulations) versus baseline (habituation), Day 1 Acute [1, 14]: significantly increased
- elimination half-life [6]: 28 to 33 min
- Stereotypy Day 2 versus Day 1 baseline, Subacute [7, 12]: no statistically significant differences
- Stereotypy versus baseline (habituation), Day 1 Acute [7, 13]: significantly increased
- DA release in NAcc Day 2 versus Day 1 baseline, Subacute (DA release in NAcc [8]; 24 hr after single dose (risperidone 2 mg/kg s.c., cocaine 10 mg/kg i.p. or both), no further drug): significantly decreased
- DA release in NAcc versus baseline (habituation), Day 1 Acute (DA release in NAcc [8]; risperidone 2 mg/kg s.c. (N=5) or cocaine 10 mg/kg i.p. (N=4), 2 hr): significantly increased
- 5-HT release in NAcc Day 2 versus Day 1 baseline, Subacute (5-HT release in NAcc [9]; 24 hr after single dose, no further drug, 1 hr, cocaine: 15, 20, 50, 55 min time points): decreased below Day1 baseline values at specific time points
- 5-HT release in NAcc versus baseline (habituation), Day 1 Acute (5-HT release in NAcc [9]; [13]): significantly increased
- DA release in NAcc Day 2 versus Day 1 baseline, Subacute (DA release in NAcc [2]; 24 hr after single injection (cocaine 10 mg/kg i.p. or clozapine 20 mg/kg i.p. + cocaine), no further drug, 1 hr): significantly decreased
- DA release in NAcc versus baseline (habituation), Day 1 Acute (DA release in NAcc [2]; [14]): significantly increased
- 5-HT release in NAcc Day 2 versus Day 1 baseline, Subacute (5-HT release in NAcc [4]; 24 hr after single injection, no further drug, 1 hr, cocaine: at the 15 min mark and second part of the hr): decreased below baseline
- 5-HT release in NAcc versus baseline (habituation), Day 1 Acute (5-HT release in NAcc [4]; [14]): significantly increased

Compound: COC(=O)[C@H]1[C@@H](OC(=O)c2ccccc2)C[C@@H]2CC[C@H]1N2 [norcocaine]
- elimination half-life [6]: 28 to 33 min
